Results reported in article doi:10.1101/275560.
No constants are given. Whether binding was seen depends on the method and setting. For some of these results: In cells and extracts the contact can be indirect. Some results given as binding are weak or reduced against the parent protein; the word gives no strength. For some of these results: Sequences can lack the tags named with a protein.

Protein sequences, listed by entry. Tags and fused reporters are not part of them.
UniProt F4JHN2: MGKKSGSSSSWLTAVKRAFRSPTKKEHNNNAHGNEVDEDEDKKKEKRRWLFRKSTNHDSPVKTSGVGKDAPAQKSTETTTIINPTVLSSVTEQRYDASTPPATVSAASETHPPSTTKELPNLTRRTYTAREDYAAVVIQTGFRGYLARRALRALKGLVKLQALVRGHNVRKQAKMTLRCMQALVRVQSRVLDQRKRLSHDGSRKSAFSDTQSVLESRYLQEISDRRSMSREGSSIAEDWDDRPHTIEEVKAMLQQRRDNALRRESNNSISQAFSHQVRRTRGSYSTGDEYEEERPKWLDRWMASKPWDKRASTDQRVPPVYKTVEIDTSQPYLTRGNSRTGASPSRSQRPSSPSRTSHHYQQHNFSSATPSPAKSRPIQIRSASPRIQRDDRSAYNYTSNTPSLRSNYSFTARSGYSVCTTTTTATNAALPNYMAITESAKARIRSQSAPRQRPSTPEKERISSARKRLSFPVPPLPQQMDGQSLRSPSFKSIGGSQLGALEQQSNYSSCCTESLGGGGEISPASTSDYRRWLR
UniProt Q9MAM4: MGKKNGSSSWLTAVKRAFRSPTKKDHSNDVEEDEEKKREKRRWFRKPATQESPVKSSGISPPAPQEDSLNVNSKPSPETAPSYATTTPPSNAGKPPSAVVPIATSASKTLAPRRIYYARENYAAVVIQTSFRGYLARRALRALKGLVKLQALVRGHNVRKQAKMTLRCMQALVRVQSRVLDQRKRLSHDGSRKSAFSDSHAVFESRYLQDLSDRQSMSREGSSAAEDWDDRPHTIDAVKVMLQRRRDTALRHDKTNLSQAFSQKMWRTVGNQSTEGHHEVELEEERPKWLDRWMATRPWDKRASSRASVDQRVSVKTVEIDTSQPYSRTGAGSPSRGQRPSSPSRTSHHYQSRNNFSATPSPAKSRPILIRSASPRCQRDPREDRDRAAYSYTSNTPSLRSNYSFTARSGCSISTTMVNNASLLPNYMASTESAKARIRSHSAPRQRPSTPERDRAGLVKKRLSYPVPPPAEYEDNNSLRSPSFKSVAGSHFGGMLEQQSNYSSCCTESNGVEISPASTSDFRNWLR

Columns and labels:
[1] = target: CaM3 (yeast two-hybrid fusion) (Arabidopsis) (UniProt P0DH98); assay: two-hybrid
[2] = target: CaM2 (yeast two-hybrid fusion) (Arabidopsis) (UniProt P0DH97); assay: two-hybrid
[3] = target: T1, SPR2 (yeast two-hybrid fusion) (Arabidopsis) (UniProt Q9T041); assay: two-hybrid
T1 sequence: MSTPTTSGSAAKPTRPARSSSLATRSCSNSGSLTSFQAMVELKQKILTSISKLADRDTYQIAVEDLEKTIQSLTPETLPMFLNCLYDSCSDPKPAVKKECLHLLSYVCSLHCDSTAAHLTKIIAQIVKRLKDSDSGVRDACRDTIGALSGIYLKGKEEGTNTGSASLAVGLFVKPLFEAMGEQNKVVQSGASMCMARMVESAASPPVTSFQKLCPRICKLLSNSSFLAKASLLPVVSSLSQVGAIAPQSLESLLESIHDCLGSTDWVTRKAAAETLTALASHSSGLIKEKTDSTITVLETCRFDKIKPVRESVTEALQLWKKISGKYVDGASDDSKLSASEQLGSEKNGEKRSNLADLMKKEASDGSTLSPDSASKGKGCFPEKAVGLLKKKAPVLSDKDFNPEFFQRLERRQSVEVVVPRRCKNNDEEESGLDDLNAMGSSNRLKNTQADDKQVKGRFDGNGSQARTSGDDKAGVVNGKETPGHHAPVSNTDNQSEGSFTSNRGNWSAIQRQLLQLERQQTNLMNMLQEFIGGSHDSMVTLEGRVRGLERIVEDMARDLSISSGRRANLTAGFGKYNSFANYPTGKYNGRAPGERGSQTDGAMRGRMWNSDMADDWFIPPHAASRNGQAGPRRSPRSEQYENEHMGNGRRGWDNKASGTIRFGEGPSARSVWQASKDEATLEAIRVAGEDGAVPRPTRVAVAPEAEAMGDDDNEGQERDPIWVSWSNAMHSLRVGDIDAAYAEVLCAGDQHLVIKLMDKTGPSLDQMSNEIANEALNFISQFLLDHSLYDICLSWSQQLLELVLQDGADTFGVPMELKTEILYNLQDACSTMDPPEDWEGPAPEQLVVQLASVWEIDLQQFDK

[4] = target: CaM1 (yeast two-hybrid fusion) (Arabidopsis) (UniProt P0DH95); assay: two-hybrid
[5] = target: T2, SPR2-nYFP (Arabidopsis) (UniProt Q9T041); assay: split reporter
T2 sequence: T1 sequence

[6] = target: CaM1-nYFP (Arabidopsis) (UniProt P0DH95); assay: split reporter

| Substance | binding [1] | binding [2] | binding [3] | binding [4] | binding [5] | binding [6] |
| --- | --- | --- | --- | --- | --- | --- |
| AtIQD17 (yeast two-hybrid fusion) (from UniProt F4JHN2 1-534) | binds | binds | no binding | binds | – | – |
| CaM1 (yeast two-hybrid fusion) (from UniProt P0DH95 1-149) | – | – | no binding | – | – | – |
| CaM2 (yeast two-hybrid fusion) (from UniProt P0DH97 1-149) | – | – | no binding | – | – | – |
| CaM3 (yeast two-hybrid fusion) (from UniProt P0DH98 1-149) | – | – | no binding | – | – | – |
| IQD18-AD (yeast two-hybrid fusion) (from UniProt Q9MAM4 1-527) | binds | binds | binds | binds | – | – |
| IQD18-cYFP (from UniProt Q9MAM4 1-527) | – | – | – | – | binds | binds |
